# Assay results as given in PubChem BioAssay AID651595 (National Center for Advancing Translational Sciences (NCATS), 2012).
# Out of some 1,100 compounds screened, fewer than 10 were called active. Not shown: some 6% with an inconclusive outcome. The call rests on the fitted dose curve; in most records, active means well fitted cell-killing curve with a large enough effect; inconclusive means small, poorly fitted or top-dose-only effect; inactive means flat fitted curve, though single readings scatter. Some of the results follow.
# Experiment: qHTS of Nrf2 Activators: Hit Validation in Cytotox Assay;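 further: compound exposure lasted 24 hours before the ATP readout; 0% is about no effect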
# Conditions: Cell viability counter-screen for Nrf2 activator hits; series mostly up to 46.1 µM; activity change, negative = cytotoxicity: at the top concentration
# How it was run: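 AREc32_fluc cells plated overnight, then treated at 7 concentrations for 24 h at 37 °C. Viability from intracellular ATP by CellTiter-Glo luminescence after 30 min at room temperature; cytotoxic compounds flagged active.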
row,Structure (SMILES),"activity change, negative = cytotoxicity"
1,O=[N+]([O-])c1cc2c(cc1Br)-c1ccccc1C2,inactive: -10.4%
2,COc1ccc([N+](=O)[O-])cc1NC(=O)CSc1nccc(C)n1,inactive: -3.22%
3,O=C1COc2ccc(C(=O)COC(=O)/C=C/c3ccco3)cc2N1,inactive: -0.414%
4,CCOC(=O)c1ccccc1N/C=C/C(=O)c1ccccc1,inactive: 1.71%
5,C#CCSc1nc(-c2ccccc2)cc(C(F)(F)F)c1C#N,inactive: 5.58%
6,Cc1cc(-c2sccc2C)nc(-n2cccc2)n1,inactive: 6.26%
7,CC(C)OC(=O)c1cn(-c2ccccc2)nc1-c1ccco1,inactive: 10.7%
8,O=C(/C=C/c1ccc(-c2ccccc2[N+](=O)[O-])o1)c1ccccc1,inactive: -4.71%
9,O=C(Nc1ccccn1)Nc1ccccc1[N+](=O)[O-],inactive: -1.04%
10,O/N=C/c1ccc2cccc(OCc3ccccc3)c2n1,inactive: 1.37%
11,Cc1ccc(O)c(NC(=O)c2cccc(NC(=O)c3ccco3)c2)c1,inactive: 2.1%
12,O=c1[nH]c(SCc2cccc([N+](=O)[O-])c2)nc2[nH]ncc12,inactive: 0.58%
13,C/C(=N/NC(=O)CNC(=O)/C=C/c1ccco1)c1ccc(Cl)cc1,inactive: -4.27%
14,O=C(NCc1ccco1)c1cc(=O)c2ccccc2o1,inactive: 9.98%
15,COc1ccc(NC(=O)c2cc(-c3ccco3)nc3ccccc23)cn1,inactive: 1.95%
16,Cc1cc(=O)oc2cc(NC(=O)c3ccccc3Cl)ccc12,inactive: -1.64%
17,O=C(Nc1nc(=O)c2ccccc2s1)c1ccccc1,inactive: -18.4%
18,Cc1ccc(-c2cc(C(F)(F)F)c(C#N)c(SCCC#N)n2)o1,inactive: 6.99%
19,Nc1c(Cl)c(Cl)nc(C(=O)N/N=C/c2ccco2)c1Cl,inactive: 2.18%
20,O=C(/C=C/Nc1ccc(F)c(Cl)c1)c1ccco1,inactive: -0.863%
21,C=C(NC(=O)C(=C)NC(=O)c1csc(C2=NC3c4csc(n4)C4NC(=O)c5csc(n5)C(C(C)(O)C(C)O)NC(=O)C5CSC(=N5)/C(=C/C)NC(=O)C(C(C)O)NC(=O)c5csc(n5)C3(CC2)NC(=O)C(C)NC(=O)C(=C)NC(=O)C(=C)NC(=O)C(C(C)C)NC2C=Cc3c(C(C)O)cc(nc3C2O)C(=O)OC4C)n1)C(N)=O (stereo unspecified),inactive: -14.5%
22,Cc1sc(NC(=O)c2ccco2)c(CN2CCCCC2)c1C,inactive: -7.31%
23,Cc1cccc(N=C/C(C(=O)C(F)(F)F)=C(\O)c2ccco2)c1,inactive: 3%
24,NC(=O)c1c(NC(=O)c2ccc([N+](=O)[O-])o2)sc2c1CCCC2,inactive: 9.52%

# Shown as tab-separated lines: three of the compounds above
row	Structure (SMILES)	activity change, negative = cytotoxicity
8	O=C(/C=C/c1ccc(-c2ccccc2[N+](=O)[O-])o1)c1ccccc1	inactive: -4.71%
15	COc1ccc(NC(=O)c2cc(-c3ccco3)nc3ccccc23)cn1	inactive: 1.95%
21	C=C(NC(=O)C(=C)NC(=O)c1csc(C2=NC3c4csc(n4)C4NC(=O)c5csc(n5)C(C(C)(O)C(C)O)NC(=O)C5CSC(=N5)/C(=C/C)NC(=O)C(C(C)O)NC(=O)c5csc(n5)C3(CC2)NC(=O)C(C)NC(=O)C(=C)NC(=O)C(=C)NC(=O)C(C(C)C)NC2C=Cc3c(C(C)O)cc(nc3C2O)C(=O)OC4C)n1)C(N)=O (stereo unspecified)	inactive: -14.5%

# Next part.

row,Structure (SMILES),"activity change, negative = cytotoxicity"
1,COc1ccc(-c2cc3ccccc3c(=O)o2)cc1,inactive: -5.35%
2,O=C1C=C(C#Cc2ccccc2)C[C@@H](c2ccc(F)cc2)C1,inactive: -0.58%
3,COc1ccc(NC(=O)c2cc(-c3cccs3)on2)c(OC)c1,inactive: 6.78%
4,CCOC(=O)c1c(-c2ccco2)csc1NC(=O)CSc1nnc(N)s1,inactive: -11.5%
5,N=c1n(CCN2CCOCC2)c2ccccc2n1CC(=O)c1cccc([N+](=O)[O-])c1,inactive: -2.38%
6,O=C(Nc1cnc2ccccc2c1)c1ccco1,inactive: -0.954%
7,CC(=O)Oc1ccc(-c2nc3c(C)cccc3c(=O)o2)cc1,inactive: 9.54%
8,[O-][n+]1onc2c3ccnnc3ccc21,inactive: -1.61%
9,Oc1ccc(Cl)cc1/C=C/c1ccc2cccc(O)c2n1,inactive: -7.68%
10,C=CCn1c(SCC(C)=O)nc2scc(-c3ccco3)c2c1=O,inactive: 0.123%
11,CCNc1ccc(-c2nc(-c3ccco3)no2)cc1[N+](=O)[O-],inactive: 4.03%
12,O=C(NCc1ccccc1)c1c(Cl)nc(Cl)c(Cl)c1Cl,inactive: 3.97%
13,OCCC#Cc1c(-c2ccsc2)sc2ccccc12,inactive: 2.25%
14,Cc1ccc(NC(=O)COCc2cc(-c3cccs3)on2)cc1Cl,inactive: 5.1%
15,O=C(O)c1ccc2c(=O)n3c(nc2c1)/C(=C/c1cccc(Cl)c1Cl)CC3,inactive: 4%
16,O=C1CSC(=S)N1Cc1cccnc1,inactive: 0.666%
17,COC(=O)c1sccc1NC(=O)Nc1ccc(Cl)c(Cl)c1,inactive: 1.57%
18,COC(=O)c1ccccc1NC(=O)c1cc(-c2ccco2)on1,inactive: 5.61%
19,Cc1cc(C)c2c(NC(=S)NC(=O)c3ccccc3)nn(C)c2n1,inactive: -1.81%
20,O=C(O)c1ccc(-n2ncc(Cl)c(Cl)c2=O)cc1,inactive: 4.8%
21,FC(F)(F)c1cc(-c2cccs2)nc(NCc2ccco2)n1,inactive: 7.21%
22,COc1ccc(OC)c(/C=C(\C#N)c2nc(-c3ccc(F)cc3)cs2)c1,inactive: 5.65%
23,CC(=O)Nc1ccc(O)c(-c2nc3ccccc3s2)c1,inactive: 3.1%
24,COc1cccc(NC(=O)c2nn(C)cc2Br)c1,inactive: 6.86%

row,Structure (SMILES),"activity change, negative = cytotoxicity"
1,COc1cc(/C=N/Nc2ccccn2)cc(OC)c1O,inactive: 7.25%
2,COc1ccc(C(C)=O)cc1OCc1ccccc1,inactive: 1.35%
3,COc1ccc(N2C(=O)/C(=C\c3ccco3)N=C2SCC(N)=O)cc1Cl,inactive: 4.38%
4,O=C(NN=Cc1cccc([N+](=O)[O-])c1)c1cccc2ccccc12,inactive: 3.2%
5,COc1cc(C=C(c2nc3ccccc3s2)c2nc3ccccc3s2)ccc1O,inactive: 0.894%
6,O=C(CSc1ccc(-c2ccco2)nn1)N1CCCC1,inactive: 3.86%
7,Cc1ccc2[nH]c(=O)c3cc(C(=O)N(C)Cc4ccco4)sc3c2c1,inactive: -26%
8,CNS(=O)(=O)c1ccc2nc(NC(=O)/C=C/c3ccco3)sc2c1,inactive: 3.7%
9,COc1ccc(N2CCCC2)c(NC(=O)c2ccc([N+](=O)[O-])o2)c1,inactive: -1.03%
10,Cc1ccc(Cn2c(/C=C/c3ccco3)nc3ccccc32)cc1,inactive: -21.8%
11,COc1ccc(Nc2nc(C)nc3sc4c(c23)CCC4)cc1O,inactive: 4.74%
12,O=c1cc(/C=C/c2ccccc2)oc2ccccc12,inactive: -7.87%
13,O=C(Nc1ccc(F)cc1F)c1cc(-c2ccco2)nc2ccccc12,inactive: -3.36%
14,Cc1ccc(Sc2cnn(-c3ccccc3)c(=O)c2Cl)cc1,inactive: -3.76%
15,COc1ccccc1-c1cc(C(F)(F)F)nc(S(=O)(=O)CCCC(=O)NCc2ccc(F)cc2)n1,inactive: -11.9%
16,Cc1nc([N+](=O)[O-])c(Br)n1Cc1ccccc1,inactive: 4.95%
17,C=C1C2=C(C(=O)N1OC)[C@@H](O)[C@@](C)(O)[C@@H](CCCCC)O2,inactive: 1.75%
18,O=C(Nc1nnc(-c2cccs2)s1)c1cccc(F)c1,inactive: 7.96%
19,O=C(Nc1c(Br)cc2c(c1Br)Cc1ccccc1-2)C(F)(F)F,inactive: -1.7%
20,Cn1nc(C(=O)Nc2c(-c3ccccc3)nc3sccn23)c2ccccc2c1=O,inactive: 0.618%
21,Cc1ccc(C(=O)Nc2nc(-c3ccco3)c(-c3ccco3)s2)o1,inactive: -1.39%
22,Cc1ccc(Nc2nc(C(N)=O)c(NC(=O)c3ccccc3Br)s2)cc1,inactive: 5.73%
23,O=c1oc2ccc(Cl)cc2nc1/C=C(\O)c1ccco1,inactive: 1.02%
